Reference: publication PMC12574955, “The Ync13–Rga7–Rng10 complex selectively coordinates secretory vesicle trafficking and secondary septum formation during cytokinesis” (PLOS Biology, 2025)
Results are given in words; binding and its absence hold for the method and conditions named. For some assays here: Binding calls can cover weak binding; strength is not graded here. For some assays here: Tags and fused reporters may be left off the sequences shown. Values belong to the molecule of their own block, whether it stands above or below them.

How the values were obtained:
Assay in all cases: ectopic mistargeting to mitochondria (Tom20-GBP); protein 1 tagged with mEGFP or mECitrine tethered to mitochondria by Tom20-GBP in live S. pombe cells; recruitment of tdTomato/mCherry/RFP-tagged protein 2 seen by confocal microscopy; Ync13 with Sec1 also tested in rng10Δ cells
[1] = target: T1, 3nmt1-mECitrine-Ync13 (Schizosaccharomyces pombe) (UniProt O13683)
T1 sequence: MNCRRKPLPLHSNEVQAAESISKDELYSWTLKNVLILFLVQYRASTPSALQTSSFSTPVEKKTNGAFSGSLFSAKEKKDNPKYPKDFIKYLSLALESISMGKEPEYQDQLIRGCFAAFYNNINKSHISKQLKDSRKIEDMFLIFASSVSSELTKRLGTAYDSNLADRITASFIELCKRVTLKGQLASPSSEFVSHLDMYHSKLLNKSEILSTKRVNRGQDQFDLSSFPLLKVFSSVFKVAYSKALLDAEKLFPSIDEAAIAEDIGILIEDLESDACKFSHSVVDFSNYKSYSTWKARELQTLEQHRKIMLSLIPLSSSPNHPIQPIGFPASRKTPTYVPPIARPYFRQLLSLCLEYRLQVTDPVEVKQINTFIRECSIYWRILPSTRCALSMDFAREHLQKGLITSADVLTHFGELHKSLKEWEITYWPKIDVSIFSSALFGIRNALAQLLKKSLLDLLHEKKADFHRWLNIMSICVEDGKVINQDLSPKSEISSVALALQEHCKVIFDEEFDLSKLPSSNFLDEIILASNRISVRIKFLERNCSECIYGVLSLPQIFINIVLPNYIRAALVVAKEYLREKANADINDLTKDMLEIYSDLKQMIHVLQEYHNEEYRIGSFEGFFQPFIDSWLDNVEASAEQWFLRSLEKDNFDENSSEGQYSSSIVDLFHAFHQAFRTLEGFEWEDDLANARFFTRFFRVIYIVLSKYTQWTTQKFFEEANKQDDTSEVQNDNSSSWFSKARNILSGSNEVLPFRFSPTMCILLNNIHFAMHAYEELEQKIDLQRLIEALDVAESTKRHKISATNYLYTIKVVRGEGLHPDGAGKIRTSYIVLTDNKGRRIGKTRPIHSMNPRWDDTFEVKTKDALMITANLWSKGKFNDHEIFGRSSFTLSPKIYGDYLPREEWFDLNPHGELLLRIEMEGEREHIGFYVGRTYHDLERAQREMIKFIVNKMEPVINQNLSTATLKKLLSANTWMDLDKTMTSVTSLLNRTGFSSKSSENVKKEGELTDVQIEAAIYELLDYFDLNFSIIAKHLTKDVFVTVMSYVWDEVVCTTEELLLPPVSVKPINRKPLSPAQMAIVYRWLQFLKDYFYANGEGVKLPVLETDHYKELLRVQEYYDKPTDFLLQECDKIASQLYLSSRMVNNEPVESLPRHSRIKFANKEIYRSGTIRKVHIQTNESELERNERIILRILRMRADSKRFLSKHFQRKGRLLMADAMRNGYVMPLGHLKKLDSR

[2] = target: T2, Rng10-mEGFP (Schizosaccharomyces pombe) (UniProt Q9P6L9)
T2 sequence: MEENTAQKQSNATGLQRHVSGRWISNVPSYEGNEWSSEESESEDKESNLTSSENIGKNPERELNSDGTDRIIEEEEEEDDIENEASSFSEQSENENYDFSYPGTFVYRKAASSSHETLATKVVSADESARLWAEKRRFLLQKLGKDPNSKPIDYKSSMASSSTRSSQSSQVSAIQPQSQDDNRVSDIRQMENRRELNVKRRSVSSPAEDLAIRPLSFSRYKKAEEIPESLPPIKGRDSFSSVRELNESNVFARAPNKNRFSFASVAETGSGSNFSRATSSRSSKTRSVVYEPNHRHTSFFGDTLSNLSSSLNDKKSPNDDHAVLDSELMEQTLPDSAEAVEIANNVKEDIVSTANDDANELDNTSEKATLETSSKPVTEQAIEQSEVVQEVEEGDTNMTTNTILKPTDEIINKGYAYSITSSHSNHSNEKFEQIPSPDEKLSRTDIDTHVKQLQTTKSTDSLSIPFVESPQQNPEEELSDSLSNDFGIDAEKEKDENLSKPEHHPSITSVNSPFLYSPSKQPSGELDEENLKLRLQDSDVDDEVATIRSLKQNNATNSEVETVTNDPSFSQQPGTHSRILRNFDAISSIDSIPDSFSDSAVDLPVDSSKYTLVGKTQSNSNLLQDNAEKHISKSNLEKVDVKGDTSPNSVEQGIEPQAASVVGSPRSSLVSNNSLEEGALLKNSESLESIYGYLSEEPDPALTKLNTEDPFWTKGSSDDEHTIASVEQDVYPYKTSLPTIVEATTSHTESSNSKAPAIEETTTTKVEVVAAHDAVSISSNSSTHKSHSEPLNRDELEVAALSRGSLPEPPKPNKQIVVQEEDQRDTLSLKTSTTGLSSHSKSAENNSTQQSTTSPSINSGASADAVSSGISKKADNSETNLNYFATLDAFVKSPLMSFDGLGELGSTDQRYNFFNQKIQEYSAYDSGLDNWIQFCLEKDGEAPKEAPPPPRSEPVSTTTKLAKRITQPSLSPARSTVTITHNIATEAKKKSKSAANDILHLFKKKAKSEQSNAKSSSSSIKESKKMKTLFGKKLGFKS

[3] = target: T3, Rga7-mEGFP (Schizosaccharomyces pombe) (UniProt O94466)
T3 sequence: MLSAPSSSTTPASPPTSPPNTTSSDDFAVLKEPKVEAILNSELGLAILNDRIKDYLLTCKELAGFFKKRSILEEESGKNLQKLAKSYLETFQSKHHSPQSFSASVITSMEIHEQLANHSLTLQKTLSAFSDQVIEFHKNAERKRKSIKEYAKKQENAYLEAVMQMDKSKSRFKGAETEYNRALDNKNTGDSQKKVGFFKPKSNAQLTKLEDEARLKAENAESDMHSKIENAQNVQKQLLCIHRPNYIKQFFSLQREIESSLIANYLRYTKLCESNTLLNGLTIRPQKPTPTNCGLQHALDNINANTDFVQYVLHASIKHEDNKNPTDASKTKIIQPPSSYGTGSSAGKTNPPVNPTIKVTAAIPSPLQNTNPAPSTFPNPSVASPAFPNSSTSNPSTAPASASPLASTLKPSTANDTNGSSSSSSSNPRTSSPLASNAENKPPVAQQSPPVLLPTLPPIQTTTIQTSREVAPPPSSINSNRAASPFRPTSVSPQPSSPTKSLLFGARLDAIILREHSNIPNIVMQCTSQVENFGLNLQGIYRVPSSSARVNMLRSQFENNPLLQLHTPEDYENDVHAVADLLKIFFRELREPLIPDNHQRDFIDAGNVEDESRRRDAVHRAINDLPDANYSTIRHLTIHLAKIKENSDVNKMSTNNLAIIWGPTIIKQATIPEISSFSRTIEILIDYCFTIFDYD

[4] = target: Rga7(∆F-BAR)-mEGFP (Schizosaccharomyces pombe)

binding [1]: no binding
Molecule: Ede1-mCherry (Schizosaccharomyces pombe)

binding [1]: no binding
Molecule: Sec3-mCherry (Schizosaccharomyces pombe)

binding [2]: no binding | binding [3]: no binding
Molecule: Sec3-tdTomato (Schizosaccharomyces pombe)

binding [4]: binds
B1: Ync13-tdTomato (protein, UniProt O13683 1-1237)
chain: T1 sequence
